For orientation: AC50 means the concentration giving half of the maximal activity seen.

The other results are listed elsewhere or left out. These are further read-outs of the screen, such as a control signal, another cell line or another target. No call is given for them. Compounds called inactive in the main read-out are mostly missing here. Potencies come from curve fits of mixed quality, noted in brackets.

A short description of this assay: IkB Signaling. The note with it: ABC-DLBCL IkBa-CBG/CBR dual luciferase ratio (green luciferase fused to IkBa over red control in OCI-Ly3 lymphoma cells), 4 h; measured here: control luc red channel unless noted. The procedure, abridged: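 Curves were fitted separately to fusion (green), unfused (red) and ratio luminescence, then classed by r2, magnitude and activity. Cells: OCI-Ly3, 4 h compound plus doxycycline at 37C; 10 uM MG-132 defined full response.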
Consider `CC(CCc1ccccc1)NC(=O)C1CCCN(c2nnc(-n3cccc3)s2)C1` (stereo not drawn), for which the AC50 is 12.6 µM [falling, partial curve].

As for `COc1ccc2c(c1)c(CC(=O)Nc1cc(C)c(OC)c(C)c1)c(C)n2C(=O)c1ccc(Cl)cc1`, the AC50 is 7.94 µM [falling, partial curve]. As for `CC(=O)c1ccc(OC(=O)c2c(-c3ccccc3Cl)noc2C)cc1`, the AC50 is 39.8 µM [falling, single point]. The figure for `Cn1nc(C(=O)Nc2cccc(C(F)(F)F)c2)c2c1-c1ccccc1S(=O)(=O)C2` is 12.6 µM [falling, partial curve]. Consider `CCCN(CCC)S(=O)(=O)c1ccc(C(=O)N2CCn3c4c(c5cc(C)ccc53)CCCC42)cc1` (stereo not drawn), for which the AC50 was 10 µM [falling, partial curve]. The figure for `CCOc1ccc(NS(=O)(=O)c2ccc3[nH]cc(C(=O)NCCc4ccccc4)c(=O)c3c2)cc1` is 31.6 µM [falling, single point]; for `Cc1occc1C(=O)Nc1ccc2ccccc2c1` it is 12.6 µM [falling, partial curve]; for `Nc1nonc1-c1nc2ccccc2n1CC(=O)Nc1ccc(F)cc1` it is 1.26 µM [falling, full curve, poor fit]. The figure for `COc1ccc(-c2nc(SCC(=O)NCc3ccco3)c(-c3ccccc3)[nH]2)cc1OC` is 10 µM [falling, partial curve]. Next, `Cc1ccc(S(=O)(=O)c2cn(CC(=O)Nc3ccccc3)c3cc4c(cc3c2=O)OCO4)cc1`: 1.26 µM [falling, full curve, poor fit]; `Cc1ccc(-c2nc(CS(=O)CC(=O)O)c(C)o2)cc1` (stereo not drawn): 39.8 µM [falling, partial curve].

Regarding `COc1cccc(N2CCN(CC(=O)Nc3nnc(-c4ccccc4)s3)CC2)c1`, the AC50 was 12.6 µM [falling, partial curve]. On to `CC(=O)c1cccc(NC(=O)c2cc(C(C)C)on2)c1`, for which the AC50 is 20 µM [falling, single point].

In the case of `Cc1cccc(N2CCN(C(=O)c3ccc4c(c3)CCN4S(=O)(=O)c3ccccc3)CC2)c1C`, the AC50 was 3.16 µM [falling, full curve]. Consider `CCC(C(=O)Nc1cc(OC)ccc1OC)n1nc(-c2ccccc2)c2c(c1=O)CCCC2` (stereo not drawn), for which the concentration at half-maximal activity (AC50) is 31.6 µM [falling, single point].

In the case of `CN(C)S(=O)(=O)N(CC(=O)NCCSc1ccc(Cl)cc1)c1ccccc1`, the AC50 was 25.1 µM [falling, partial curve]. Take `CCN(CC)S(=O)(=O)c1ccc2nnn(OCC(=O)Nc3cccc(C#N)c3)c2c1`: the AC50 is 12.6 µM [falling, partial curve]. Next, `Cc1ccc(-n2ccnc(NCc3cccs3)c2=O)cc1C`: 1.58 µM [rising, partial curve]; `Cc1cc(C)c2oc(C(=O)Nc3nc4ccc(Cl)cc4s3)cc(=O)c2c1`: 1.26 µM [rising, full curve].

As for `CC1CN(C(=O)Nc2ccc3snnc3c2)c2ccccc21` (stereo not drawn), the half-maximal activity concentration (AC50) is 20 µM [falling, single point]. With `COc1ccccc1C(=O)NCCc1csc(-c2ccc(C(F)(F)F)cc2)n1`, the AC50 is 31.6 µM [falling, single point]. For `COc1cc(NC(=O)Cn2c(=O)n(CC3CCCO3)c(=O)c3cc(OC)c(OC)cc32)cc(OC)c1` (stereo not drawn), the AC50 is 39.8 µM [falling, single point].

For `CCc1ccc(C2CC(=O)N(c3cccc(C(F)(F)F)c3)C3=C2C(=O)OC3)cc1` (stereo not drawn), the concentration at half-maximal activity (AC50) is 25.1 µM [falling, partial curve].

For `Cc1ccc(C)c(NC2=C(c3ccc(C(F)(F)F)cc3)C(=O)c3ccccc32)c1`, the concentration at half-maximal activity (AC50) was 15.8 µM [falling, partial curve]. The figure for `CCCN1CCCc2cc(CN(CCCN3CCOCC3)C(=O)Nc3ccc(OCC)cc3)ccc21` is 3.16 µM [falling, single point]; for `COc1ccc2c(CNC3CCC(C)CC3)c(C(=O)O)n(Cc3ccccc3)c2c1` (stereo not drawn) it is 15.8 µM [falling, single point]; for `COc1ccccc1NC(=O)C1=C(C)Nc2nc(SCc3ccccc3Cl)nn2C1c1cccnc1` (stereo not drawn) it is 3.98 µM [falling, partial curve]. The figure for `N#Cc1cnc2sc3ccccc3n2c1=N` is 10 µM [falling, partial curve]. `Cc1ccc(NC(=O)CN2CCN(C3CCCCC3)C(=O)C2=O)cc1C`: the AC50 is 7.94 µM [falling, partial curve, poor fit]. In the case of `CCCN1C(C(=O)c2ccccc2)=C(OC(=O)C(C)(C)C)c2ccccc2S1(=O)=O`, the AC50 is 10 µM [falling, partial curve]. The figure for `Cc1ccc2c(c1)sc1nc(=O)n(-c3cccc(Cl)c3)c(=O)n12` is 0.0251 µM [falling, full curve, poor fit]; for `O=C(Cn1ncc2c3ccccc3n(Cc3cccc(Cl)c3)c2c1=O)N1CCCCC1` it is 12.6 µM [falling, partial curve]; for `COc1ccc(CN2C(=O)c3ccccc3C2C(=O)NC2CCCCCC2)c(OC)c1` (stereo not drawn) it is 25.1 µM [falling, single point].

Take `COc1ccc2oc(=O)c(-c3nc4ccc(C)cc4[nH]3)cc2c1`: the AC50 is 0.316 µM [falling, full curve]. As to `COc1ccc(Br)cc1CC1C(=O)Nc2ccccc21` (stereo not drawn), the AC50 is 25.1 µM [falling, partial curve]. Turning to `CCC1Oc2ccc(C)cc2N(CC(=O)N(Cc2cccnc2)Cc2ccc(C)o2)C1=O` (stereo not drawn), the AC50 is 31.6 µM [falling, partial curve].

As to `COc1ccccc1OCC(=O)Sc1ccc(C)cc1`, the AC50 is 39.8 µM [rising, single point] [measured here: IkB-luc green channel]. Next, `CCN(CCCNC(=O)CCCN1C(=O)COc2ccc(C)cc21)c1cccc(C)c1`: 12.6 µM [falling, partial curve]; `Cn1c(=O)cc(OCC(=O)N2CCN(c3ccccc3F)CC2)c2ccccc21`: 20 µM [falling, single point]. In the case of `Cc1cc2oc(C(=O)N(Cc3ccc(N(C)C)cc3)CC3CCCO3)c(C)c2cc1C` (stereo not drawn), the AC50 is 12.6 µM [falling, partial curve]. Next, `O=c1cc[nH]c2cccc(Cc3ccccc3)c12`: 12.6 µM [falling, partial curve]; `CCN1CCc2c(sc(NC(=O)CSc3ccccc3)c2-c2nc3ccccc3s2)C1`: 39.8 µM [falling, single point]. The figure for `COc1ccc(-c2noc(-c3cc(C(C)C)[nH]n3)n2)cc1` is 1 µM [rising, partial curve].

Turning to `Cc1ccc(OCCSc2nc3ccccc3n2CC(=O)N2CCCCC2)cc1C`, the AC50 is 20 µM [falling, partial curve].

As for `COC(=O)c1ccccc1NC(=O)CCn1nc(C)c2c(C)n(-c3ccccc3)nc2c1=O`, the AC50 was 2 µM [falling, full curve]. For the compound `CCOc1cccc2sc(NC(=O)c3ccc(S(=O)(=O)N4CCc5ccccc54)cc3)nc12`, the AC50 is 0.398 µM [falling, full curve]. The figure for `Cc1csc(NC(=O)C(NS(=O)(=O)c2ccc(Br)s2)c2ccccc2)n1` (stereo not drawn) is 15.8 µM [falling, partial curve]; for `COc1ccc(CN2CCN(c3ncnc4sc5c(c34)CCCC5)CC2)cc1F` it is 10 µM [falling, partial curve]; for `CCCCN(C)C(=O)c1ccc2c(c1)N(Cc1cccc(Cl)c1)C(=O)c1ccccc1S2=O` (stereo not drawn) it is 39.8 µM [falling, single point].

With `CCOC(=O)CSc1nc2cc3c(cc2c(=O)n1CCCCCC(=O)NCc1ccc2c(c1)OCO2)OCO3`, the AC50 is 6.31 µM [rising, single point]. `COc1cc(C2Nc3ccccc3-c3nnc(SCc4ccc(Cl)cc4)nc3O2)ccc1OCC(=O)O` (stereo not drawn): the AC50 was 31.6 µM [falling, single point]. The figure for `Cc1ccc2c(CC(=O)Nc3ccc(S(=O)(=O)Nc4nc(C)cc(C)n4)cc3)coc2c1` is 5.01 µM [falling, partial curve]; for `COC(=O)c1ccc(NC(=O)c2nn(C)c3c2COc2ccccc2-3)cc1` it is 7.94 µM [falling, partial curve]. Turning to `Cc1nn(CCCC(=O)NCCc2ccc(Cl)cc2)c(=O)c2nn(-c3ccccc3)c(C)c12`, the AC50 is 12.6 µM [falling, partial curve, poor fit]. Next, `COc1ccc(C2CC(=O)c3cc(-c4nc(-c5cccc([N+](=O)[O-])c5)cs4)c(=O)n(-c4ccccc4C)c3C2)cc1` (stereo not drawn): 15.8 µM [falling, single point]; `Cc1ccc(-c2cc(NC(=O)COc3c(C)cc(C)cc3C)on2)cc1`: 2 µM [falling, partial curve]; `O=C(NCc1ccccc1F)c1cccc(NC(=O)N2CCSc3ncccc32)c1`: 25.1 µM [falling, single point]. The figure for `COc1ccc(C)cc1NC(=O)C1CCN(S(=O)(=O)c2cccc3cccnc23)CC1` is 12.6 µM [falling, partial curve]; for `CNc1nc2c(c(=O)[nH]c(=O)n2C)n1CCOC` it is 20 µM [falling, partial curve]. Turning to `Cc1ccc(NC(=O)Cc2nc(CSc3nnc(-c4ccc5c(c4)OCO5)o3)cs2)cc1`, the AC50 is 6.31 µM [falling, partial curve]. Next, `COc1ccc(-n2c(O)c(C=NC3CC3)c(=O)[nH]c2=O)cc1`: 10 µM [falling, partial curve]; `CCCCNC(=O)CCc1c(C)nc2c(c(C)nn2-c2ccccc2)c1C`: 20 µM [falling, single point]; `Cc1cc(C(=O)CSc2nnc(Cc3ccccc3)o2)c(C)n1Cc1ccc2c(c1)OCO2`: 12.6 µM [falling, partial curve].

For the origin of these results see PubChem BioAssay AID445 (National Center for Advancing Translational Sciences (NCATS), 2006).
